Legend:
[1] = Tryptic peptide map analysis of aglycosylated Fc; conditions: XIC peak areas
[2] = Glycan profiling by 2-AB labeling and HILIC-FL; conditions: for % Fucosylated Complex Oligosaccharides / % High mannose glycan: Process 4 batches
[3] = 2-AB labeling, HILIC-FL, sum of peaks

DS1-001
Aglycosylation (%) [1]: 1.4%

DS1-002
Aglycosylation (%) [1]: 1.4%

DS1-RS1: Process 1 reference standard [reference compound]
Aglycosylation (%) [1]: 1.2%

DS2-001
Aglycosylation (%) [1]: 1.6%

DS2-002
Aglycosylation (%) [1]: 1.5%

DS2-003
Aglycosylation (%) [1]: 1.4%

DS4-001: risankizumab Process 4 drug substance batch
Aglycosylation (%) [1]: 0.8%

DS4-002: risankizumab Process 4 drug substance batch
Aglycosylation (%) [1]: 0.9%

DS4-003: risankizumab Process 4 drug substance batch
Peak 1 G0F-GlcNAc (A1FG0) Peak Area Percentage ([2]; 2-AB labeling, HILIC-FL): 1.8% | Peak 2 G0F (A2FG0) Peak Area Percentage ([2]; 2-AB labeling, HILIC-FL): 63.9% | Peak 3 Man 5 Peak Area Percentage ([2]; 2-AB labeling, HILIC-FL): 2.7% | Peak 4 G1F(a) (A2F[6]G1) Peak Area Percentage ([2]; 2-AB labeling, HILIC-FL): 17.0% | Peak 5 G1F(b) (A2F[3]G1) Peak Area Percentage ([2]; 2-AB labeling, HILIC-FL): 6.4% | Peak 6 Man 6 Peak Area Percentage ([2]; 2-AB labeling, HILIC-FL): 0.4% | Peak 7 G2F (A2FG2) Peak Area Percentage ([2]; 2-AB labeling, HILIC-FL): 1.8% | Peak 8 Man 7 Peak Area Percentage ([2]; 2-AB labeling, HILIC-FL): 0.5% | Fucosylated biantennary oligosaccharide (Peaks 1, 2, 4, 5, 7) Peak Area Percentage [2, 3]: 90.9% | Man 5 + 6 + 7 (Peaks 3, 6, 8) Peak Area Percentage [2, 3]: 3.6%

DS4-003DS4-003
Aglycosylation (%) [1]: 1.4%

DS4-004: risankizumab Process 4 drug substance batch
Aglycosylation (%) [1]: 1.0%

GMP1
% Fucosylated Complex Oligosaccharides [2]: 89.8% | % High mannose glycan [2]: 4.0%

GMP2
% Fucosylated Complex Oligosaccharides [2]: 90.2% | % High mannose glycan [2]: 4.1%

GMP3
% Fucosylated Complex Oligosaccharides [2]: 90.9% | % High mannose glycan [2]: 3.6%

GMP4
% Fucosylated Complex Oligosaccharides [2]: 89.8% | % High mannose glycan [2]: 4.1%

— patent publication US20250313619A1, “RISANKIZUMAB COMPOSITIONS” (ABBVIE INC., priority 0001, published 2025)
